The target in the test is calcitonin receptor-like receptor (human (endogenous in HDLEC)) (UniProt Q16602). The test can be described thus: proximity ligation.

Chains of the proteins cited; added tags and fusions are not shown. Residues count along the entry.
UniProt Q16602, residues 23-461: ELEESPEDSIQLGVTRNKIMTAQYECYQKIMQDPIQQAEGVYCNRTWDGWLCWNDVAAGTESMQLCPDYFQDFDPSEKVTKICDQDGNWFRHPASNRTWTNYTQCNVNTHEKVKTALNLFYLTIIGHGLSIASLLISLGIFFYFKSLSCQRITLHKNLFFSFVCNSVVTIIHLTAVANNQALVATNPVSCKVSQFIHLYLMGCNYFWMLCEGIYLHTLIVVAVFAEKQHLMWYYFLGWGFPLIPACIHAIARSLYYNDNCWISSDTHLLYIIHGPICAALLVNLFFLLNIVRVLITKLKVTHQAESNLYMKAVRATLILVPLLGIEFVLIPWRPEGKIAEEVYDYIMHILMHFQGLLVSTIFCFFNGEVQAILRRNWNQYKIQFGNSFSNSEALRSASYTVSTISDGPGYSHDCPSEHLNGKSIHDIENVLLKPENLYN
UniProt Q9Y5S2: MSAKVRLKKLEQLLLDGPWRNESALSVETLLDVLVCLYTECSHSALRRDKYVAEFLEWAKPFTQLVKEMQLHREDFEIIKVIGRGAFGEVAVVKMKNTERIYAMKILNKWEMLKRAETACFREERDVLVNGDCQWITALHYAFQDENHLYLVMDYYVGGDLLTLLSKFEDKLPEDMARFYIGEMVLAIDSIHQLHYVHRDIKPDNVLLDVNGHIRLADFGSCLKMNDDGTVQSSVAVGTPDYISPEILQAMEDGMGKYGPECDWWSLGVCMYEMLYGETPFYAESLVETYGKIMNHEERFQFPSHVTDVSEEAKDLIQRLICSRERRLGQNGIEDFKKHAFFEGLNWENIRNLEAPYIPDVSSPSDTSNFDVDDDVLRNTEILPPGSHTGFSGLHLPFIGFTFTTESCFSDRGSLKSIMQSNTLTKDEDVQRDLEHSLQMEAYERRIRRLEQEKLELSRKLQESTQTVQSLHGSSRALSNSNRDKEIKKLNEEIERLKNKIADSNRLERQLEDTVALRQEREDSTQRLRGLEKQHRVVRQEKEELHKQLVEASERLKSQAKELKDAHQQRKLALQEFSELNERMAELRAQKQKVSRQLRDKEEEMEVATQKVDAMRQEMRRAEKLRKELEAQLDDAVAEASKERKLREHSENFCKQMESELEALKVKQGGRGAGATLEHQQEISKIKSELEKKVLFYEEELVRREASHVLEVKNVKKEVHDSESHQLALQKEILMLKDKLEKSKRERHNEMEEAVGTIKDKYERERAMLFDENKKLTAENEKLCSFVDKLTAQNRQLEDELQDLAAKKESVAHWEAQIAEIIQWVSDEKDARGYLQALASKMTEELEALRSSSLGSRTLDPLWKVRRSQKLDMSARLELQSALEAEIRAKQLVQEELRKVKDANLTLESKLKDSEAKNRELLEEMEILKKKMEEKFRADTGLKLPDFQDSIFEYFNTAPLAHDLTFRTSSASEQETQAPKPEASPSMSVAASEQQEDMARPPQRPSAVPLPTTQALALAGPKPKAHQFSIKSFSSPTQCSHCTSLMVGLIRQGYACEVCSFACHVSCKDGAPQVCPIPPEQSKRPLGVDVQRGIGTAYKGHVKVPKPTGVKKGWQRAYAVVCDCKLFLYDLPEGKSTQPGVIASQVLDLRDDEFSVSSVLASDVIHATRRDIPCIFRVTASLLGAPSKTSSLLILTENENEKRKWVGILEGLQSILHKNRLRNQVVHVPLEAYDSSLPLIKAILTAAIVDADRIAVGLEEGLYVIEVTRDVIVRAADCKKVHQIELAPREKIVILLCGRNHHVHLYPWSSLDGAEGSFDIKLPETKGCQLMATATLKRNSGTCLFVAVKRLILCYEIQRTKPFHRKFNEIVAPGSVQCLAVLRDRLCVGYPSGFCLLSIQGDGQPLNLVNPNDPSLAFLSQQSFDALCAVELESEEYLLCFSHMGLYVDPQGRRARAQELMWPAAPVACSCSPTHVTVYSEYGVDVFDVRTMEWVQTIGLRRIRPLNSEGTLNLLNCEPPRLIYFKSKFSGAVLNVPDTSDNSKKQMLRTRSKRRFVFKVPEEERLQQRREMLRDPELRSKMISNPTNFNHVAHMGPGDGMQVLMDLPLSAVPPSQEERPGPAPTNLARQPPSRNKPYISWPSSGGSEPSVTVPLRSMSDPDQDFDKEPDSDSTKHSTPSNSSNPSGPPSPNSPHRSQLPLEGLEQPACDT
UniProt Q13557: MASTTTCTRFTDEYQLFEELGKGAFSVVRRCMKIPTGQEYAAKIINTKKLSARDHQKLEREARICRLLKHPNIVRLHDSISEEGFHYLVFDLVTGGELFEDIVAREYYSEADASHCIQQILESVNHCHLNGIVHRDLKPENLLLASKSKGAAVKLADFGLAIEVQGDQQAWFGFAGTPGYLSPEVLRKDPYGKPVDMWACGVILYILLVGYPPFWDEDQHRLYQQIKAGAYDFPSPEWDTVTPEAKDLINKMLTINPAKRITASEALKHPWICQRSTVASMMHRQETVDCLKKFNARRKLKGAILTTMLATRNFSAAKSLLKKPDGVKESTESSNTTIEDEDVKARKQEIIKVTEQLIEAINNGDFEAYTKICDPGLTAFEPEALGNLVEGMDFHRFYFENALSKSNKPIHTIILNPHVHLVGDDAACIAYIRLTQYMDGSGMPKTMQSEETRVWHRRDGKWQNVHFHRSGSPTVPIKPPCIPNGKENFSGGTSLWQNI

Results are given in words; binding and its absence hold for the method and conditions named. In cells and extracts the contact can be indirect. Some binding calls cover weakened binding; strength is not graded here.

Binding data for five molecules are collected here from paper doi:10.1101/2023.04.18.537143.

With “serine/threonine-protein kinase MRCK beta (from UniProt Q9Y5S2 1-1711) (enzyme)”, the binding entry is given as “binds”. With “calcium/calmodulin dependent protein kinase II delta (from UniProt Q13557 1-499) (enzyme)” the entry was “binds”; with “valosin containing protein (from UniProt P55072 1-806) (enzyme)”, “binds”.

B1: nucleoporin 93 (protein, UniProt Q8N1F7 1-819)
chain: MDTEGFGELLQQAEQLAAETEGISELPHVERNLQEIQQAGERLRSRTLTRTSQETADVKASVLLGSRGLDISHISQRLESLSAATTFEPLEPVKDTDIQGFLKNEKDNALLSAIEESRKRTFGMAEEYHRESMLVEWEQVKQRILHTLLASGEDALDFTQESEPSYISDVGPPGRSSLDNIEMAYARQIYIYNEKIVNGHLQPNLVDLCASVAELDDKSISDMWTMVKQMTDVLLTPATDALKNRSSVEVRMEFVRQALAYLEQSYKNYTLVTVFGNLHQAQLGGVPGTYQLVRSFLNIKLPAPLPGLQDGEVEGHPVWALIYYCMRCGDLLAASQVVNRAQHQLGEFKTWFQEYMNSKDRRLSPATENKLRLHYRRALRNNTDPYKRAVYCIIGRCDVTDNQSEVADKTEDYLWLKLNQVCFDDDGTSSPQDRLTLSQFQKQLLEDYGESHFTVNQQPFLYFQVLFLTAQFEAAVAFLFRMERLRCHAVHVALVLFELKLLLKSSGQSAQLLSHEPGDPPCLRRLNFVRLLMLYTRKFESTDPREALQYFYFLRDEKDSQGENMFLRCVSELVIESREFDMILGKLENDGSRKPGVIDKFTSDTKPIINKVASVAENKGLFEEAAKLYDLAKNADKVLELMNKLLSPVVPQISAPQSNKERLKNMALSIAERYRAQGISANKFVDSTFYLLLDLITFFDEYHSGHIDRAFDIIERLKLVPLNQESVEERVAAFRNFSDEIRHNLSEVLLATMNILFTQFKRLKGTSPSSSSRPQRVIEDRDSQLRSQARTLITFAGMIPYRTSGDTNARLVQMEVLMN
B1: the binding result was “binds”.

B2: aconitase 1 (enzyme, UniProt P21399 1-889)
chain: MSNPFAHLAEPLDPVQPGKKFFNLNKLEDSRYGRLPFSIRVLLEAAIRNCDEFLVKKQDIENILHWNVTQHKNIEVPFKPARVILQDFTGVPAVVDFAAMRDAVKKLGGDPEKINPVCPADLVIDHSIQVDFNRRADSLQKNQDLEFERNRERFEFLKWGSQAFHNMRIIPPGSGIIHQVNLEYLARVVFDQDGYYYPDSLVGTDSHTTMIDGLGILGWGVGGIEAEAVMLGQPISMVLPQVIGYRLMGKPHPLVTSTDIVLTITKHLRQVGVVGKFVEFFGPGVAQLSIADRATIANMCPEYGATAAFFPVDEVSITYLVQTGRDEEKLKYIKKYLQAVGMFRDFNDPSQDPDFTQVVELDLKTVVPCCSGPKRPQDKVAVSDMKKDFESCLGAKQGFKGFQVAPEHHNDHKTFIYDNTEFTLAHGSVVIAAITSCTNTSNPSVMLGAGLLAKKAVDAGLNVMPYIKTSLSPGSGVVTYYLQESGVMPYLSQLGFDVVGYGCMTCIGNSGPLPEPVVEAITQGDLVAVGVLSGNRNFEGRVHPNTRANYLASPPLVIAYAIAGTIRIDFEKEPLGVNAKGQQVFLKDIWPTRDEIQAVERQYVIPGMFKEVYQKIETVNESWNALATPSDKLFFWNSKSTYIKSPPFFENLTLDLQPPKSIVDAYVLLNLGDSVTTDHISPAGNIARNSPAARYLTNRGLTPREFNSYGSRRGNDAVMARGTFANIRLLNRFLNKQAPQTIHLPSGEILDVFDAAERYQQAGLPLIVLAGKEYGAGSSRDWAAKGPFLLGIKAVLAESYERIHRSNLVGMGVIPLEYLPGENADALGLTGQERYTIIIPENLKPQMKVQVKLDTGKTFQAVMRFDTDVELTYFLNGGILNYMIRKMAK
For B2, the binding entry is reported as “binds”.
